Experimental data as given in PubChem BioAssay AID504648 (National Center for Advancing Translational Sciences (NCATS), 2011).
In all, about 390,000 compounds went through this assay and about 610 (0.16%) were called active. The shares of active, inactive and inconclusive entries below differ from those in the screen. Calls follow the shape of the dose curve; as a rule, active = well fitted inhibition curve with a large enough effect; inconclusive = small, poorly fitted or top-dose-only effect, or effect the other way, or another doubt; inactive = no such curve, though single readings can be large or run the other way. Where the call is inconclusive, the potency comes from a doubtful curve fit.

Experiment: Nrf2 qHTS screen for inhibitors: counterscreen for cytotoxicity
Conditions: A549 ARE-Fluc cells, CellTiter-Fluor viability, 18-24 h; series mostly up to 46 µM; activity change, negative = cytotoxicity: at the top concentration
Procedure, shortened: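 A549 ARE_Fluc cells in 5% FBS OPTI-MEM were exposed to compounds in concentration-response for 18-24 h at 37 deg C. Viability was read by CellTiter-Fluor fluorescence (Ex 405/Em 525) after 30 min, before the luciferase read.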
% is scaled to controls: 0 for no effect and ±100 for the full control effect; potency is read from the fitted curve at half-maximal effect.

Row | SMILES | activity change, negative = cytotoxicity | Potency
1 | COc1ccc(CC(=O)N2CCN(C)CC2)cc1 | inactive: 0.224% | 
2 | N#CC(C#N)=NNc1ccc(S(N)(=O)=O)cc1 |  | inconclusive: 23.1 µM [falling, partial curve]
3 | CC(=O)C1C(N2CC2)CC2C3CCC4=CC(=O)CCC4(C)C3CCC21C (stereo unspecified) |  | active: 16.4 µM
4 | O=C1CCN(C(=O)Cc2ccccc2[N+](=O)[O-])CC1 | inactive: 1.71% | 
5 | COc1ccc(C)cc1NC(=O)c1cccn(Cc2ccccc2Cl)c1=O |  | inconclusive: 1.3 µM [activator, partial curve, poor fit]
6 | O=C1NC(=O)N(c2ccc3c(c2)OCO3)C(=O)/C1=C\c1ccc(N2CCCCC2)o1 |  | inconclusive: 16.4 µM [falling, partial curve]
7 | CNc1ccc2nc3ccccc3[n+](C)c2c1 |  | active: 7.31 µM
8 | CC(C)[C@H]1C(=O)O[C@@H]2CCN3CC=C(COC(=O)[C@](C)(O)[C@]1(C)O)[C@H]23 | inactive: 11.6% | 
9 | CC[C@@H](C(=O)[C@@H](C)[C@@H](O)[C@H](C)[C@@H]1O[C@@H]([C@@H](CC)C(=O)O)CC[C@@H]1C)[C@H]1O[C@]2(C=C[C@@H](O)[C@]3(CC[C@@](C)([C@H]4CC[C@](O)(CC)[C@H](C)O4)O3)O2)[C@H](C)C[C@@H]1C |  | active: 4.61 µM
10 | COc1ccc(NC2Oc3cc4c(cc3C(c3cc(OC)c(OC)c(OC)c3)C2C)OCO4)cc1 (stereo unspecified) |  | inconclusive: 20.6 µM [falling, single point]
11 | COCCCn1c(N)c(C(=O)NCCC(C)C)c2nc3ccccc3nc21 |  | inconclusive: 29.1 µM [falling, single point]
12 | COc1ccc(C2=NCC(=O)N(CC(=O)NCc3ccco3)c3sc4c(c32)CCCC4)cc1OC | inactive: -6.8% | 
13 | C(#CCN1CCCC1)CN1CCCC1 |  | inconclusive: 32.6 µM [falling, partial curve, poor fit]
14 | O=C(CCN1CCCCC1)NCC(=O)Nc1ccc(Br)cc1C(=O)c1ccccc1 |  | inconclusive: 6.51 µM [activator, single point]
15 | CCOC(=O)C(NS(=O)(=O)c1ccc(C)cc1)(C(F)(F)F)P(=O)(OCC(C)C)OCC(C)C (stereo unspecified) |  | inconclusive: 29.1 µM [falling, partial curve, poor fit]
16 | COc1ccc(CC2C(=O)NC(C)C(=O)N(C)C3C(=O)N(C)C(Cc4ccc(O)c(c4)Oc4ccc(cc4)C3O)C(=O)NC(C)C(=O)NC(C)C(=O)N2C)cc1 (stereo unspecified) |  | inconclusive: 1.84 µM [falling, full curve]
17 | Cn1c(=O)n(C)c2cc(CNCCc3ccccc3F)ccc21 | inactive: -10.1% | 
18 | NC(=O)c1cc(N2CC2)c([N+](=O)[O-])cc1[N+](=O)[O-] |  | inconclusive: 25.9 µM [falling, partial curve, poor fit]
19 | CCOc1ccc2nc(N=Nc3c(O)[nH]c(=O)[nH]c3=O)sc2c1 |  | inconclusive: 14.6 µM [falling, partial curve]
20 | O=C(COC(=O)c1ccc(O)cc1)Nc1ccc(Cl)cc1C(=O)c1ccccc1 | inactive: -5.76% | 
21 | C=CCN1CC[C@]23c4c5ccc(O)c4O[C@H]2C(=O)CC[C@@]3(O)[C@H]1C5 |  | inactive

Taken from above.
Under Potency, `COc1ccc(NC2Oc3cc4c(cc3C(c3cc(OC)c(OC)c(OC)c3)C2C)OCO4)cc1` (stereo unspecified) reads inconclusive: 20.6 µM [falling, single point]
Under Potency, `O=C(CCN1CCCCC1)NCC(=O)Nc1ccc(Br)cc1C(=O)c1ccccc1` reads inconclusive: 6.51 µM [activator, single point]
Under activity change, negative = cytotoxicity, `O=C1CCN(C(=O)Cc2ccccc2[N+](=O)[O-])CC1` reads inactive: 1.71%
Under Potency, `C=CCN1CC[C@]23c4c5ccc(O)c4O[C@H]2C(=O)CC[C@@]3(O)[C@H]1C5` reads inactive

(list continues)

Row | SMILES | activity change, negative = cytotoxicity | Potency
22 | N#CC(C#N)=NNc1ccc(S(=O)(=O)N2CCCC2)cc1 |  | inconclusive: 25.9 µM [falling, single point]
23 | O=c1[nH]c(O)c(N=Nc2ccc([N+](=O)[O-])cc2)c(=O)[nH]1 |  | inconclusive: 8.2 µM [falling, partial curve, poor fit]
24 | O=c1cc(-c2ccc(O)c(O)c2)oc2c(C3O[C@H](CO)[C@@H](O)[C@H](O)[C@H]3O)c(O)cc(O)c12 (stereo partly specified) |  | inconclusive: 16.4 µM [falling, partial curve, poor fit]
25 | CN1CC=C(c2c[nH]c3ccccc23)CC1 |  | inconclusive: 4.11 µM [falling, full curve]
26 | COC(=O)C12OCC34C(CC5C(C)=C(O)C(=O)CC5(C)C3C(O)C1O)OC(=O)C(OC(=O)/C=C(\C)C(C)C)C24 (stereo unspecified) |  | active: 0.291 µM
27 | O=c1cccc2n1CC1CC2CN(Cc2ccc3c(c2)OCO3)C1 (stereo unspecified) |  | inconclusive: 6.51 µM [falling, single point]
28 | COc1ccc(-c2cc(-c3ccccc3)[n+](C)c(-c3ccccc3)c2)cc1 |  | inconclusive: 25.9 µM [falling, single point]
29 | Cc1ccc(OP(=O)(O)Oc2ccc(C)cc2)cc1 | inactive: 0.88% | 
30 | COC(=O)C1=C(c2cc3ccccc3o2)C[C@@H]2CC[C@H]1N2C(=O)NCc1ccc(C(F)(F)F)cc1 |  | inconclusive: 29.1 µM [falling, single point]
31 | COc1ccc(C2CC(=O)Oc3c2c(=O)oc2ccccc32)c(OC)c1OC (stereo unspecified) | inactive: 1.72% | 
32 | CCCCCn1c(NC(=O)c2ccco2)c(C(=O)OCC)c2nc3ccccc3nc21 |  | inconclusive: 16.4 µM [falling, single point]
33 | Cn1c(O)c(C=NCCCN2CCCC2=O)c(=O)n(C)c1=O |  | inconclusive: 6.51 µM [falling, single point]
34 | COC1CCC(OC2CC(C3(C)CCC4(CC(O)C(C)C(C(C)/C=C(\C)C(=O)C(C)CC(C)C(=O)O)O4)O3)OC3(OC(C4OC(O)(CO)C(C)CC4C)CC3C)C2C)OC1C (stereo unspecified) |  | active: 0.651 µM
35 | O=C(CN1CCOCC1)c1ccc(Br)cc1 | inactive: -0.25% | 
36 | Cn1c(O)c(C(=Nc2ccccc2)SCc2ccc(Cl)cc2)c(=O)n(C)c1=O |  | inconclusive: 32.6 µM [falling, partial curve, poor fit]
37 | COC(=O)c1ccc(NC(=O)CSc2nc3ccc(N4C(=O)C5C6C=CC(C6)C5C4=O)cc3s2)cc1 (stereo unspecified) |  | inconclusive: 32.6 µM [falling, partial curve, poor fit]
38 | O=C(CCn1c(=O)oc2ccccc21)N(Cc1ccccc1)c1ccccn1 |  | inconclusive: 1.3 µM [activator, full curve, poor fit]
39 | COc1ccc(C(=O)N/N=C/C23CC[C@@H](O)CC2(O)CC[C@@H]2[C@@H]3CCC3(C)C(C4=CC(=O)OC4)CCC23O)cc1 (stereo partly specified) |  | inconclusive: 5.8 µM [falling, full curve]
40 | CN(C)C=C1C(=O)N(C2CCCCC2)C(=O)N(C2CCCCC2)C1=O |  | inconclusive: 25.9 µM [falling, single point]
41 | Cc1cc(C)cc(OCCOc2cccc(C=C3C(=O)NC(=O)NC3=O)c2)c1 | inactive: -17.9% | 
42 | CCOC(=O)c1c(C)n(Cc2ccccc2)c2ccc(OCC(O)CNC(C)(C)C)cc12 (stereo unspecified) | inactive: -4.26% | 

Row | SMILES | activity change, negative = cytotoxicity | Potency
43 | COc1ccc(C2=NCC(=O)N(CC(=O)NCc3ccco3)c3sc4c(c32)CCCC4)cc1 |  | inconclusive: 18.4 µM [falling, single point]
44 | Cc1ccc(C)c(NP(=O)(Oc2ccccc2)Oc2ccccc2)c1 |  | inconclusive: 29.1 µM [falling, single point]
45 | O=C(c1cc(C(=O)NCc2ccc(Cl)cc2)c(=O)n(Cc2ccc(Cl)cc2)c1)c1cc(F)ccc1O |  | inconclusive: 29.1 µM [falling, partial curve, poor fit]
46 | C[C@]12CC[C@H](O)C[C@H]1CC[C@@H]1[C@@H]2CC[C@]2(C)[C@@H](C3=CC(=O)OC3)CC[C@]12O |  | inconclusive: 0.231 µM [falling, full curve]
47 | O=P(OC1CCCCC1)(OC1CCCCC1)C(O)c1c(Cl)cccc1Cl (stereo unspecified) |  | inconclusive: 29.1 µM [falling, single point]
48 | Cc1[nH]c2ccc(OC(F)(F)F)cc2c1CCNCc1cccc([N+](=O)[O-])c1 | inactive: -0.239% | 
49 | COc1ccc(Cl)cc1NC1=NCC(C)S1 (stereo unspecified) |  | inconclusive: 9.2 µM [activator, single point]
50 | CCN(CC)c1ccc(/C=C2\C(=O)NC(=S)N(C)C2=O)o1 |  | inconclusive: 20.6 µM [falling, partial curve, poor fit]
51 | Cc1ccc(C)c(CN2CCC(n3nnc4cc(F)ccc43)CC2)c1 |  | inconclusive: 29.1 µM [falling, single point]
52 | O=[N+]([O-])c1ccc(N2CCNCC2)cc1N1CCCCCC1 |  | inconclusive: 25.9 µM [falling, partial curve, poor fit]
53 | COC(=O)C1=C(c2ccc(F)cc2OCc2ccccc2)C[C@@H]2CC[C@H]1N2C(=O)NCc1ccc2[nH]ccc2c1 |  | inconclusive: 20.6 µM [falling, partial curve, poor fit]
54 | COc1cc2nc(CN3CC=C(c4ccccc4)CC3)[nH]c(=O)c2cc1OC |  | inconclusive: 2.06 µM [falling, full curve]
55 | COC(=O)C1=C(c2ccc(Cl)c(C(F)(F)F)c2)C[C@@H]2CC[C@H]1N2C(=O)N1CCC(C)CC1 |  | inconclusive: 18.4 µM [falling, partial curve, poor fit]
56 | CC12CC[C@H]3[C@@H](CCC4(O)C[C@H](O)CCC34/C=N/NC(=O)c3ccccc3O)C1(O)CCC2C1=CC(=O)OC1 (stereo partly specified) | inactive: -0.908% | 
57 | CCCC/C(=N/O)c1c(C)[nH]c2ccccc12 | inactive: 1.29% | 
58 | [O]=[Sb]([OH])([OH])[c]1ccccc1 | inactive: 0.0962% | 
59 | O=c1[nH]c(Cl)ccc1CN1CCOCC1 |  | inconclusive: 18.4 µM [falling, partial curve, poor fit]
60 | COC1C(O)C(C)OC(OC2CCC3(C=O)C(CCC4C3CCC3(C)C(C5=CC(=O)OC5)CCC43O)C2)C1O (stereo unspecified) |  | inconclusive: 0.092 µM [falling, partial curve, poor fit]
61 | C[C@@H]1O[C@@H](O[C@@H]2C=C3CCC4C(CC[C@]5(C)[C@@H](c6ccc(=O)oc6)CC[C@]45O)[C@@]3(C)CC2)[C@H](O)[C@H](O)[C@H]1O (stereo partly specified) |  | inconclusive: 0.0052 µM [falling, full curve]
